Values quoted from earlier work, collected in patent US20190300958A1, “GENETIC POLYMORPHISMS ASSOCIATED WITH VENOUS THROMBOSIS AND STATIN RESPONSE, METHODS OF DETECTION AND USES THEREOF” (Celera Corporation, priority 2010, published 2019).
For some assays here: At least one read-out could not be matched to a standard name with certainty. For some assays here: At least one structure is not confirmed: it was looked up by name or label, or the drawing left a doubt.

Legend:
[1] = lipophilic statins, diffuse across membranes
VT = conditions: postmenopausal women, about 500 DVT cases and 2000 controls

| Compound | cell permeability [1] | OR for risk of VT (VT) |
| --- | --- | --- |
| CC[C@H](C)C(=O)O[C@H]1C[C@@H](C)C=C2C=C[C@H](C)[C@H](CC[C@@H]3C[C@@H](O)CC(=O)O3)[C@H]21 [lovastatin] | highly cell permeable | – |
| CCC(C)(C)C(=O)O[C@H]1C[C@@H](C)C=C2C=C[C@H](C)[C@H](CC[C@@H]3C[C@@H](O)CC(=O)O3)[C@H]21 [Simvastatin, simvastatin] | – | 0.51 |
